Test results from article PMC9736779.
The exact form of at least one protein or probe is not confirmed. Weaker means in comparison with the reference protein, sequence or condition of that experiment.

The chains behind the UniProt entries cited, without tags or fusion partners.
UniProt P19338, whole entry: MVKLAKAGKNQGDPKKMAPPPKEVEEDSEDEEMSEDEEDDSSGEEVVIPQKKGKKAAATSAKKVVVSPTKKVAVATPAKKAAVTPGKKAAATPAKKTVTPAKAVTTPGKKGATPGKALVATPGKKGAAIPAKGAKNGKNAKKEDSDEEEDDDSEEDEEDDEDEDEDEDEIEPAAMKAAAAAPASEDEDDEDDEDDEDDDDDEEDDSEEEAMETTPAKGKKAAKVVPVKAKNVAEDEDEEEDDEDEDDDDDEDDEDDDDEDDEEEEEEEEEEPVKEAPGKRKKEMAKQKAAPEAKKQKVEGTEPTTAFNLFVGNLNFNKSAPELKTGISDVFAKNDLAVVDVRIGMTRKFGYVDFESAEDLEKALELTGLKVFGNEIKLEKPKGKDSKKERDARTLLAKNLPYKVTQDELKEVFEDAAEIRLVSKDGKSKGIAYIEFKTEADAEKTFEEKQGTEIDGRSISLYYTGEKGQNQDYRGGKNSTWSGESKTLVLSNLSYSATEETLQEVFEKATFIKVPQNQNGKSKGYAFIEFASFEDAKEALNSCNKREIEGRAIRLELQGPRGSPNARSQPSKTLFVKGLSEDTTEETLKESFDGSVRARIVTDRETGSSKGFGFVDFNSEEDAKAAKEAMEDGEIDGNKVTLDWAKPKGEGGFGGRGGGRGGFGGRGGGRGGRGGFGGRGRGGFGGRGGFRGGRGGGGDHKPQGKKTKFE

Molecular target: nucleolin (NCL) (Homo sapiens) (UniProt P19338)
Assay: SPR
Conditions: negative control, small dose-response signal, fit failed, 70 mM KCl, SPR (Biacore X-100, CM5): 10 mM HEPES, pH 7.4, 25 C, analyte 5-500 uM, two-state reaction fit, commercial protein, single-stranded DNA

Sequence: TTTTTTTTTTTTTTTTTTTTTTT [T23, d(T)23]
- binding result: binds more weakly
